{"source": "paper PMC5290461", "assay_in_all_cases": "SEC-MALS; gel filtration chromatography combined with a static light scattering detector; purified His-tagged talin heads; both purified", "key": {"[1]": {"target": "His-tagged talin1(1-446) C336S (human) (UniProt Q9Y490)"}, "[2]": {"target": "His-tagged talin2(1-449) S339C (human) (UniProt Q9Y4G6)"}, "[3]": {"target": "His-tagged talin2(1-449) WT (human) (UniProt Q9Y4G6)"}, "[4]": {"target": "His-tagged talin1(1-446) WT (human) (UniProt Q9Y490)"}}, "note": "No constants are given. Whether binding was seen depends on the method and setting."}
{"substance": "His-tagged talin1(1-446) C336S (from UniProt Q9Y490 1-446) (domain or fragment)", "values": [{"measurement": "binding", "setting": "[1]", "result": "no binding"}]}
{"substance": "His-tagged talin2(1-449) S339C (from UniProt Q9Y4G6 1-449) (domain or fragment)", "values": [{"measurement": "binding", "setting": "[2]", "result": "no binding"}]}
{"substance": "His-tagged talin2(1-449) WT (from UniProt Q9Y4G6 1-449) (domain or fragment)", "values": [{"measurement": "binding", "setting": "[3]", "result": "no binding"}]}
{"substance": "His-tagged talin1(1-446) WT (from UniProt Q9Y490 1-446) (domain or fragment)", "values": [{"measurement": "binding", "setting": "[4]", "result": "no binding"}]}
